Results are given in words; binding and its absence hold for the method and conditions named.
Target: glycoprotein ribonuclease B (UniProt P61823)
Test: SPR; fibre optic SPR read by intensity (yellow LED 595 nm, web camera); RNase B amine-coupled (MUA, EDC/NHS) on the Au-coated fibre, unreacted esters blocked with BSA; reference channel blocked with BSA without RNase B and subtracted; PBS pH 7.4; 500 uL sample at 250 uL/min; regeneration with 8.0 mol/L urea; both purified

Amino acid sequences for entries named in this document (tags omitted). Residues count along the entry.
UniProt P61823, residues 27-150: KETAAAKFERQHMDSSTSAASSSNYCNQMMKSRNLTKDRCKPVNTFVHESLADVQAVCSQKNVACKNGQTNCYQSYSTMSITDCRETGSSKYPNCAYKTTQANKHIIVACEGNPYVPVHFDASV
UniProt P02769, residues 25-607: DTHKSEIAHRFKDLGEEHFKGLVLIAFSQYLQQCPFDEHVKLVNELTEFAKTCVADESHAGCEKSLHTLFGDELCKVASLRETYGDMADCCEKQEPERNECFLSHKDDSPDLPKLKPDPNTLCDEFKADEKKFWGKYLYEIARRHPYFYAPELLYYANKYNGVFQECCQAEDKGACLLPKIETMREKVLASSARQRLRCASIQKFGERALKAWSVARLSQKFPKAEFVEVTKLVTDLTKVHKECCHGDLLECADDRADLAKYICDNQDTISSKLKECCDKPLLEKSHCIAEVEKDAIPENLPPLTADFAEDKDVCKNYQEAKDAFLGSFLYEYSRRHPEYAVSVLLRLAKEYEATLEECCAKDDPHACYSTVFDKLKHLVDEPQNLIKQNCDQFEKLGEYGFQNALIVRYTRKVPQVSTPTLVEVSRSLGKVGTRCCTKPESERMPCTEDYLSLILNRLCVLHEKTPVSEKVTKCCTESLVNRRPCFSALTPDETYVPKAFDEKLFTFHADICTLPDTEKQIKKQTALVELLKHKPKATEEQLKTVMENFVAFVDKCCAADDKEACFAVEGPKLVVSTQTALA

bovine serum albumin (from UniProt P02769 25-607)
binding: no binding (tested: 0.2 mg/mL)

Reference: paper PMC5751700
